PubChem BioAssay AID1259308 | NCATS | 2017
Assay: 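Knock-downs that increase output of a recombinant reporter protein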 (primary screen). Cell system: human HEK293 embryonic kidney cells stably expressing firefly luciferase (HEK-CMV-Luc2-Hygro). Reagent: single siRNA against human genes, 0.8 pmol siRNA per well. Time to read-out: 72 h. Measured: 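Luciferase light (ONE-Glo) measured on one replicate plate set and viability (CellTiter-Glo) on the other, scaled to a negative control siRNA, with robust z-scores and luciferase per cell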. Reading the numbers: total luciferase, z-score and total luciferase, % of control: higher = more reporter protein produced. Call rule: 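Active when the median/MAD z-score for overall luciferase is greater than 3; a gene was taken forward for validation with new siRNAs if at least two of its three siRNAs passed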. Meaning of the calls: active = raised luciferase; inactive = no rise.
The deposit covers about 59,000 reagents; shown is a random part of them. About 1,510 of all reagents (2.6%) count as active. 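Calls use total luciferase alone and ignore viability, so some active siRNAs may act by altering cell number.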 Unmarked entries are inactive. Reagents against one gene are numbered here. Not all columns of the deposit are shown.

For NPIPB15 #1, the values are total luciferase, z-score -0.0651; total luciferase, % of control 80.6.
Against NPIPB15 #2 the deposit lists total luciferase, z-score -0.731; total luciferase, % of control 67.3.
NPIPB15 #3 gave total luciferase, z-score -2.52; total luciferase, % of control 31.8.
Against OR5B21 #1, the values are total luciferase, z-score 3.48 (active); total luciferase, % of control 151.
For OR5B21 #2, the values are total luciferase, z-score 1.11; total luciferase, % of control 104.
Depletion of OR5B21 #3 resulted in: total luciferase, z-score -1.76; total luciferase, % of control 46.9.
COL27A1 #1 showed total luciferase, z-score -0.282; total luciferase, % of control 76.3.
COL27A1 #2 gave total luciferase, z-score 1.88; total luciferase, % of control 119.
Knock-down of COL27A1 #3 resulted in: total luciferase, z-score 0.366; total luciferase, % of control 89.2.
With knock-down of SEPTIN7P2 #1, the record shows total luciferase, z-score 0.291; total luciferase, % of control 87.7.
After knock-down of SEPTIN7P2 #2, the record shows total luciferase, z-score -0.763; total luciferase, % of control 66.7.
Against SEPTIN7P2 #3, the values are total luciferase, z-score -0.00512; total luciferase, % of control 81.8.
Knock-down of GDAP2 #1 resulted in: total luciferase, z-score 0.65; total luciferase, % of control 94.8.
With knock-down of GDAP2 #2, the record shows total luciferase, z-score -0.411; total luciferase, % of control 73.7.
Knock-down of GDAP2 #3 gave: total luciferase, z-score 1.91; total luciferase, % of control 120.
FKBP14 #1 scored total luciferase, z-score 0.1; total luciferase, % of control 83.9.
With knock-down of FKBP14 #2, the screen gave total luciferase, z-score 3.85 (active); total luciferase, % of control 159.
Against FKBP14 #3 the deposit lists total luciferase, z-score -1.16; total luciferase, % of control 58.8.
PDK3 #1 scored total luciferase, z-score -1.21; total luciferase, % of control 57.7.
For PDK3 #2, the entry reads total luciferase, z-score 0.75; total luciferase, % of control 96.8.
Knock-down of PDK3 #3 resulted in: total luciferase, z-score -0.192; total luciferase, % of control 78.1.
Silencing of COL24A1 #1 gave: total luciferase, z-score 1.72; total luciferase, % of control 116.
For COL24A1 #2 the deposit lists total luciferase, z-score 0.226; total luciferase, % of control 86.4.
Knock-down of COL24A1 #3 resulted in: total luciferase, z-score -0.226; total luciferase, % of control 77.4.

Reformatted: 5 of the entries above.
Gene	siRNA no.	total luciferase, z-score	total luciferase, % of control
PDK3	2	0.75	96.8
PDK3	3	-0.192	78.1
COL24A1	1	1.72	116
COL24A1	2	0.226	86.4
COL24A1	3	-0.226	77.4

The results go on.
MTX2 #1 gave total luciferase, z-score -0.784; total luciferase, % of control 66.3.
After knock-down of MTX2 #2 the results were total luciferase, z-score 0.375; total luciferase, % of control 89.3.
Silencing of MTX2 #3 resulted in: total luciferase, z-score -0.0858; total luciferase, % of control 80.2.
For SNRPD2P1 #1 the deposit lists total luciferase, z-score 2.1; total luciferase, % of control 124.
After knock-down of SNRPD2P1 #2, the record shows total luciferase, z-score 4.21 (active); total luciferase, % of control 166.
With knock-down of SNRPD2P1 #3, the screen gave total luciferase, z-score 2.46; total luciferase, % of control 131.
FCRL5 #1 gave total luciferase, z-score -2.89; total luciferase, % of control 24.3.
With knock-down of FCRL5 #2, the record shows total luciferase, z-score 0.605; total luciferase, % of control 93.9.
FCRL5 #3 scored total luciferase, z-score -2.04; total luciferase, % of control 41.3.
PTCD3 #1 gave total luciferase, z-score 1.11; total luciferase, % of control 104.
For PTCD3 #2 the deposit lists total luciferase, z-score 1.88; total luciferase, % of control 119.
PTCD3 #3 gave total luciferase, z-score -0.182; total luciferase, % of control 78.3.
For TAS1R1 #1, the values are total luciferase, z-score 0.438; total luciferase, % of control 90.6.
TAS1R1 #2 gave total luciferase, z-score -0.26; total luciferase, % of control 76.7.
Against TAS1R1 #3 the deposit lists total luciferase, z-score -0.948; total luciferase, % of control 63.
Silencing of OR5D16 #1 gave: total luciferase, z-score -0.699; total luciferase, % of control 68.
With knock-down of OR5D16 #2 the results were total luciferase, z-score -0.65; total luciferase, % of control 68.9.
Against OR5D16 #3, the entry reads total luciferase, z-score 0.112; total luciferase, % of control 84.1.
